Measured values reported in PubChem BioAssay AID588590 (National Center for Advancing Translational Sciences (NCATS), 2011).
Values joined by “and” are separate entries in the source; they are usually repeats but may differ in a detail not shown here. Equal values may be shown once. The campaign covered roughly 390,000 compounds. About 4,000 (1%) were called active. The inconclusive results got no clear call from the source; some entries with a clear call stand among them for comparison. Calls come from the whole dose curve; as a rule, active = well fitted inhibition curve with a large enough effect; inconclusive = small, poorly fitted or top-dose-only effect, or another doubt; inactive = no such curve, though single readings can be large or run the other way. Potencies of inconclusive entries are doubtful fits and often do not repeat.

Amino acid sequences for entries named in this document (tags omitted). A change or cut given only in a name is not applied to a line headed by its entry.
UniProt Q9UNA4: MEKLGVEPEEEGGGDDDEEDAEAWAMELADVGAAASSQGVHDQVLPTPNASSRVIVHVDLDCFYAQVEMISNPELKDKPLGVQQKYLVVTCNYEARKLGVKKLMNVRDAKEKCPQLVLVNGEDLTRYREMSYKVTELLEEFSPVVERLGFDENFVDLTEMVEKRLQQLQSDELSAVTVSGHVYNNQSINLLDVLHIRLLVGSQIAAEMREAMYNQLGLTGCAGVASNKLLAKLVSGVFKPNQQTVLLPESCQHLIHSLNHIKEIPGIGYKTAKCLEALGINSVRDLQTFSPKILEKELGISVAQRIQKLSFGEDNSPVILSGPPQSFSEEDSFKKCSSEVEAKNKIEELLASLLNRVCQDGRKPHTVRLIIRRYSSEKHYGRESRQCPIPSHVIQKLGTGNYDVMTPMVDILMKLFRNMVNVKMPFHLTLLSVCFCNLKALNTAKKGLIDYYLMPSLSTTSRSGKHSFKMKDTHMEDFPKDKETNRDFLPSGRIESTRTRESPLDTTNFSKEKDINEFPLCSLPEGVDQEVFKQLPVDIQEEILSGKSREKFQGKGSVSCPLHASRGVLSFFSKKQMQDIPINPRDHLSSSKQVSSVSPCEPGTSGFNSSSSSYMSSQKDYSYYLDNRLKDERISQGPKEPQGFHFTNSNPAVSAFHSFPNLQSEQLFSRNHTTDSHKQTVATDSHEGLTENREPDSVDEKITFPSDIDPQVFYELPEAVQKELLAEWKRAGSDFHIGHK

biological target: DNA polymerase iota (Homo sapiens) (UniProt Q9UNA4); test: qHTS for Inhibitors of Polymerase Iota; settings: Pol iota fluorescent replication assay, 10 min; series mostly up to 115 µM; activity, negative = inhibition: at the top concentration
Summary of the method: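 Pol iota at 10 nM preincubated 15 min with compounds at room temperature; reaction started with fluorescent substrate, 50 nM final. Fluorescence read kinetically at 0 and 10 min; buffer-only wells as negative control.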
Potency is the fitted concentration of half-maximal effect.

Compound | Potency | activity, negative = inhibition
CN1C(=O)Cc2cc(S(=O)(=O)NCCc3ccc(Cl)cc3)ccc21 | inconclusive: 89.1 µM [inhibitor, single point] | 
CCOc1ccc(NC2=NCCC(=O)N2Cc2cccs2)cc1 |  | inactive: -5.23%
O=C1CC(c2ccco2)Cc2[nH]c(=O)c(C(=O)Nc3ccccc3)cc21 (stereo not given) |  | inactive: 20.4%
Cc1ccc(C(=O)Nc2cc(-c3nc4ncccc4o3)ccc2C)c(C)c1 |  | inactive: 11.9%
COc1cc(O)c(C(C)=O)c(CC(=O)O)c1 | active: 12.6 µM | 
O=C(O)c1cc2nccc(-c3ccco3)n2n1 | inconclusive: 14.1 µM [inhibitor, full curve, poor fit] | 
Cc1cccc(N2CCN(C(=O)Cc3c(C(=O)O)c(C)cn3C)CC2)c1C | inconclusive: 79.4 µM [inhibitor, partial curve, poor fit] | 
Cc1ccc(C(=O)c2c(N)c(-c3nc(-c4ccc5c(c4)OCO5)cs3)c3ccccn23)cc1C |  | inactive: -25.8%
Cc1cc(Nc2ccccc2)c2c([N+](=O)[O-])ccc(C)c2n1 |  | inactive: 49.7%
CC(=O)Nc1ccc(NC(=O)Cc2ccc(S(=O)(=O)N3CCCCC3)s2)cc1 | inconclusive: 28.2 µM [inhibitor, partial curve] | 
Cc1ccc2[nH]c(C)c(/C=C/c3cc[n+](C)cc3)c2c1 |  | inactive: 2.87%
COc1ccc(CC(=O)NNS(=O)(=O)c2cccc([N+](=O)[O-])c2)cc1OC |  | inactive: 19.4%
Cc1ccc(N(CC(=O)Nc2ccccc2-c2ccccc2)S(=O)(=O)c2ccccc2)c(C)c1 | inconclusive: 31.6 µM [inhibitor, partial curve, poor fit] | 
Cc1cc(C(=O)O)ccc1-n1c(C)cc(C=C2C(=O)c3ccccc3C2=O)c1C | inconclusive: 35.5 µM [inhibitor, partial curve] | 
COc1ccc(CCC(=O)NCc2ccc3c(c2)OCO3)cc1 | inconclusive: 79.4 µM [inhibitor, single point] | 
CCN(CC)/[N+]([O-])=N/Oc1cc(O/N=[N+](\[O-])N(C)C)c([N+](=O)[O-])cc1[N+](=O)[O-] | inconclusive: 14.1 µM [inhibitor, full curve] | 
CCN1C(=O)[C@H]2[C@H]3CN=C(SCc4ccc(Cl)cc4)N3[C@@](C)(C(=O)OC)[C@H]2C1=O | inconclusive: 20 µM [inhibitor, single point] | 
O=C(OCc1nnc(-c2ccccc2)o1)c1cc(S(=O)(=O)N2CCOCC2)c(Cl)cc1Cl | inconclusive: 31.6 µM [inhibitor, single point] | 
CN(C)S(=O)(=O)c1cccc(NC(=O)Cn2cc(C(F)(F)F)cc(Cl)c2=O)c1 | inconclusive: 100 µM [inhibitor, single point] | 
COc1ccc(OC)c(CN2CCN(C(=O)[C@@H](NC(=O)c3cccc(C)c3)C(C)C)CC2)c1 |  | inactive: 2.91%
CC(C)(C)c1ccc(OCC(O)CS(=O)(=O)c2ccccn2)cc1 (stereo not given) | inconclusive: 39.8 µM [inhibitor, single point] | 
O=C(Cn1c(-c2ccco2)nc2ccccc21)N1CCCCC1 | inconclusive: 28.2 µM [inhibitor, partial curve, poor fit] | 

Compound | Potency | activity, negative = inhibition
CCOC(=O)C1=C(O)C(=O)N(c2ccccc2)C1c1cccc([N+](=O)[O-])c1 (stereo not given) | inconclusive: 50.1 µM [inhibitor, single point] | 
O=C(N/N=C/c1cc(Cl)ccc1O)c1cccnc1 | inconclusive: 89.1 µM [inhibitor, partial curve, poor fit] | 
Cc1ccccc1N(CC(=O)N/N=C/c1ccc(N(C)C)cc1)C(=O)c1ccccc1 | inconclusive: 31.6 µM [inhibitor, single point] | 
O=C(CN1C(=O)S/C(=C\c2ccc(Cl)cc2)C1=O)NNC(=O)c1ccccc1O | inconclusive: 31.6 µM [inhibitor, partial curve, poor fit] | 
COc1cc(-c2nnc(SCCOc3ccc(Cl)cc3)o2)cc(OC)c1OC |  | inactive: 9.91%
CC(C)CN(CC(C)C)c1ccc(/C=C/c2nc3ccccc3s2)cc1 | inconclusive: 79.4 µM [inhibitor, single point] | 
CC1(C)CC(=O)C=C(Nc2ccc(Br)cn2)C1 | inconclusive: 89.1 µM [inhibitor, single point] | 
COc1ccc2nc(SCC(=O)C(C)(C)C)[nH]c2c1 | inconclusive: 25.1 µM [inhibitor, single point] | 
CCC(C)NC(=O)CSc1nc2n[nH]c(C)c2c(=N)n1-c1cc(Cl)ccc1C (stereo not given) |  | inactive: -24.6%
Cc1nn(-c2cc(Cl)ccc2N)c(=O)c2ccccc12 | inconclusive: 112 µM [inhibitor, partial curve, poor fit] | 
Nc1nnc(CC(=O)N/N=C\c2cc([N+](=O)[O-])ccc2O)s1 | inconclusive: 22.4 µM [inhibitor, partial curve, poor fit] | 
O=C(CNC(=O)c1cccc(F)c1)N/N=C/c1cccnc1 | inconclusive: 7.94 µM [inhibitor, partial curve, poor fit] | 
COc1ccc(NC(=O)CSc2ccc3nc(-c4ccccc4)cn3n2)c(OC)c1 | inconclusive: 79.4 µM [inhibitor, partial curve, poor fit] | 
CCN(CC)C(=O)c1[nH]cnc1C(=O)Nc1ccc(Cl)cc1 |  | inactive: 14%
COc1ccc(OC)c(S(=O)(=O)N2CCN(C(=O)NC3CCCCC3)CC2)c1 | inconclusive: 15.8 µM [inhibitor, partial curve, poor fit] | 
CCOC(=O)Cn1c(=S)[nH]c2c(oc3ccc(Cl)cc32)c1=O | inconclusive: 44.7 µM [inhibitor, single point] | 
NC(=O)N/N=C/c1sc(N2CCCCC2)nc1-c1cccs1 | inconclusive: 0.891 µM [inhibitor, full curve, poor fit] | 
Cc1nc2ccccc2nc1OCC(=O)Nc1ccc2ccccc2c1 | inconclusive: 89.1 µM [inhibitor, single point] | 
OCC1CCCC(n2cnc3c(=S)nc[nH]c32)O1 (stereo not given) |  | inactive: 51.5%
CN(CC(=O)Nc1ccc(N2CCOCC2)cc1)C(=O)CCc1ccccc1Cl | inconclusive: 39.8 µM [inhibitor, partial curve, poor fit] | 
O=C(Nc1ccc(S(=O)(=O)N2CCCCC2c2cccnc2)cc1)c1ccc(Br)cc1 (stereo not given) |  | inactive: 10.1%
CCC[C@H]1COCCS(=O)(=O)N1Cc1ccc(Br)cc1 | inconclusive: 79.4 µM [inhibitor, single point] | 

Compound | Potency | activity, negative = inhibition
Cc1cc(C)c2oc(C(=O)Nc3ccc(S(=O)(=O)N4CCCCCC4)cc3)cc(=O)c2c1 |  | inactive: 5.81%
CCCN(CCC)C(=O)Cn1c(=O)n(-c2ccc(CC)cc2)c(=O)c2ccc(C(=O)NCCc3ccccc3)cc21 | inconclusive: 79.4 µM [inhibitor, partial curve, poor fit] | 
O=C(c1cnn(-c2cccc(F)c2)c1)c1ccccc1O |  | inactive: 5.99%
Cc1ccc(/C=C2\SC(=S)N(C3CCS(=O)(=O)C3)C2=O)o1 (stereo not given) | inconclusive: 14.1 µM [inhibitor, full curve, poor fit] | 
COc1ccccc1N1CCN(CC(O)COc2ccc(S(=O)(=O)N3CCOCC3)cc2)CC1 (stereo not given) | inconclusive: 14.1 µM [inhibitor, full curve, poor fit] | 
Cc1cc(N2CCN(c3nc4ccccc4s3)CC2)n2ncnc2n1 | inconclusive: 70.8 µM [inhibitor, partial curve, poor fit] | 
Cc1cccc(/C=N/NC(=O)Cc2ccc(Cl)cc2)c1O |  | inactive: 2.63%
CC(=O)c1ccc(NC(=S)NC(=O)/C=C/c2ccc(F)cc2)cc1 |  | inactive: 45%
CC(C)(C)OC(=O)N1CCC(c2c(C(=O)NC3CCN(Cc4ccccc4)CC3)cnn2-c2ccc(F)cc2F)CC1 |  | inactive: 0.0095%
COc1ccc(CCNC(=O)c2ccc3c(c2)CCN3S(=O)(=O)c2ccc(C)cc2)cc1 | inconclusive: 89.1 µM [inhibitor, single point] | 
CCCOc1ccc(C(=O)OCCN(CC)CC)cc1N | inconclusive: 89.1 µM [inhibitor, partial curve, poor fit] | 
CC(C)(C)c1ccc(-c2ncccc2O)cc1 | inconclusive: 89.1 µM [inhibitor, partial curve, poor fit] | 
Cc1ccc(S(=O)(=O)N2CCCC2C(=O)OCc2ccccc2)cc1 (stereo not given) |  | inactive: 8.4%
CCOc1ccc(NC(=O)c2c(NC(=O)CNCCN3CCOCC3)sc3c2CCC3)cc1 | inconclusive: 22.4 µM [inhibitor, partial curve, poor fit] | 
CCc1nn2c(=O)cc(COC(=O)CNC(=O)COc3ccc(C)cc3)nc2s1 |  | inactive: -10%
CCC(=O)N1CCc2cc(S(=O)(=O)CCC(=O)N3CCN(c4ccc(Cl)cc4)CC3)ccc21 | inconclusive: 89.1 µM [inhibitor, partial curve, poor fit] | 
CC(C)(C)c1ccccc1NC(=O)C1=COCCO1 |  | inactive: 62.6%
CCCn1c(C(C)Nc2nc(-c3cccc(Br)c3)cs2)nc2ccccc21 (stereo not given) | inconclusive: 31.6 µM [inhibitor, partial curve, poor fit] | 
O=S(=O)(Nc1nnc(-c2ccccc2)s1)c1ccc(Cl)cc1 | inconclusive: 8.91 µM [inhibitor, partial curve, poor fit] | 
COc1cc(O)c(C(CC(=O)N2CCCC(C)C2)c2cc(OC)c(OC)c(OC)c2)c(OC)c1 (stereo not given) | inconclusive: 89.1 µM [inhibitor, single point] | 
CCCN(CCC)CCCNC(=O)c1cc2c(-c3ccc(OC)c(OC)c3)nn(C)c2s1 | inconclusive: 25.1 µM [inhibitor, full curve, poor fit] and inconclusive: 35.5 µM [inhibitor, partial curve, poor fit] | 

Arranged by heavy-atom count (ascending): part of the list above
Compound | Potency | activity, negative = inhibition
Cc1cccc(/C=N/NC(=O)Cc2ccc(Cl)cc2)c1O |  | inactive: 2.63%
NC(=O)N/N=C/c1sc(N2CCCCC2)nc1-c1cccs1 | inconclusive: 0.891 µM [inhibitor, full curve, poor fit] | 
O=C1CC(c2ccco2)Cc2[nH]c(=O)c(C(=O)Nc3ccccc3)cc21 (stereo not given) |  | inactive: 20.4%
CCOC(=O)C1=C(O)C(=O)N(c2ccccc2)C1c1cccc([N+](=O)[O-])c1 (stereo not given) | inconclusive: 50.1 µM [inhibitor, single point] | 
COc1ccc(OC)c(CN2CCN(C(=O)[C@@H](NC(=O)c3cccc(C)c3)C(C)C)CC2)c1 |  | inactive: 2.91%
